Measurements published in doi:10.1101/2024.09.20.612365, “Preventing Inappropriate Signals Pre- and Post-Ligand Perception by a Toggle-Switch Mechanism of ERECTA” (bioRxiv, 2024).

Key:
[1] = target: T1, GST-PUB30 (plant U-box E3 ligase PUB30) (Arabidopsis, UniProt Q058P4 1-448); test: condition: 10,000 nM (highest of the seven concentrations); BLI; recombinantly purified GST-BKI1 or GST-PUB30 and MBP-ER_CD variants at seven concentrations (156.25, 312.5, 625, 1,250, 2,500, 5,000 and 10,000 nM); representative of three independent experiments; both purified
T1 construct: U-box E3 ubiquitin ligase PUB30, Arabidopsis; source: recombinantly purified
T1 sequence (looked up): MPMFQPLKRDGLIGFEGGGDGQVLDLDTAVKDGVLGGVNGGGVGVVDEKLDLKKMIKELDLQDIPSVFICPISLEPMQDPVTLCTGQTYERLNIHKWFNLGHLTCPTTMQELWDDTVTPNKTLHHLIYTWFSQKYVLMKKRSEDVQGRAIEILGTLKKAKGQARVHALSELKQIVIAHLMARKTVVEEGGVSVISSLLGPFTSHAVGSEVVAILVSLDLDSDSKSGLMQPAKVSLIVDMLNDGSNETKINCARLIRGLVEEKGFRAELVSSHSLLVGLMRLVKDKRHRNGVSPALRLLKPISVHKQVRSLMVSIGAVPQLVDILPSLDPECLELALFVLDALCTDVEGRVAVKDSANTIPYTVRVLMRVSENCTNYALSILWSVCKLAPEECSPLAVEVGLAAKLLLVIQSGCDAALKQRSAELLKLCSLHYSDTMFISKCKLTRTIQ

[2] = target: T2, GST-BKI1 (BRI1 KINASE INHIBITOR 1) (Arabidopsis) (UniProt Q9FMZ0); test: as above
T2 sequence: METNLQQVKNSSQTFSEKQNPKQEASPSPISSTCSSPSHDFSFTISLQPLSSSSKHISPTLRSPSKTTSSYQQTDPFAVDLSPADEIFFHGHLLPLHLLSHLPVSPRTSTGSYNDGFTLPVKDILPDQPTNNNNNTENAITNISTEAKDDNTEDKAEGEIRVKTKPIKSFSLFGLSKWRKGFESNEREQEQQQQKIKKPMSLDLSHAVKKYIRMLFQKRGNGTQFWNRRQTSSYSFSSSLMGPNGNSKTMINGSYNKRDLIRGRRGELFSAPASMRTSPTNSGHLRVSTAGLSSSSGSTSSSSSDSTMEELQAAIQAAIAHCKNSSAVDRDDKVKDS

- binding [1]: no binding
- binding [2]: no binding
Substance: MBP-ER_CD_(ΔC43) (Arabidopsis) (domain or fragment)

No constants are given. Whether binding was seen depends on the method and setting. Where a sequence is shown, tags or fusion partners need not be part of it.
